From PMC5093555
These are yes or no findings as the source states them, for the method shown. Binding seen in cells or lysates may run through a third protein. Some entries that bind do so weakly or less than the wild type. Each block holds one substance with its values, some of them ahead of it.

Columns and labels:
[1] = target: C1 domain mutated (R77A) PKCα protein fused to eCFP or eYFP (human) (UniProt P17252); assay: FRET or BRET; intermolecular lux-FRET (apparent FRET efficiency at equal donor and acceptor) between co-expressed eCFP and eYFP fusions in living HEK293 cells; Ca^2+ raised by ATP or by ionomycin with extracellular Ca^2+; video or confocal imaging; signal at the plasma membrane; room temperature (20-22 °C), Tyrode
[2] = target: C2 domain of PKCα fused to eCFP or eYFP (human) (UniProt P17252); assay: as above
[3] = target: protein kinase C βII (PKCβ-II) fused to eCFP or eYFP (human) (UniProt P05771); assay: as above
[4] = target: protein kinase Cα (PKCα), wild type, fused to eCFP or eYFP (human) (UniProt P17252); assay: condition: only membrane accumulation by PMA (1 μM, 20 minutes), without Ca^2+ increase; FRET or BRET; fluorescence lifetime imaging (TCSPC) of the eCFP donor with or without the eYFP acceptor in living HEK cells; membrane accumulation by PMA (1 μM, 20 minutes) without Ca^2+ increase
[5] = target: protein kinase Cα (PKCα), wild type, fused to eCFP or eYFP (human) (UniProt P17252); assay: condition: only in the cytosol (not bound to the plasma membrane); FRET or BRET; confocal lux-FRET between co-expressed eCFP and eYFP fusions in living HEK293 cells, ionomycin with raised Ca^2+; region of the cytosol

binding [1]: binds
Substance: C1 domain mutated (R77A) PKCα protein fused to eCFP or eYFP (from UniProt P17252 1-672) (enzyme)

binding [2]: binds
Substance: C2 domain of PKCα fused to eCFP or eYFP (from UniProt P17252 154-338) (domain or fragment)

binding [3]: binds
Substance: protein kinase C βII (PKCβ-II) fused to eCFP or eYFP (from UniProt P05771-2 1-673) (enzyme)

binding [4]: no binding
binding [5]: no binding
Substance: protein kinase Cα (PKCα), wild type, fused to eCFP or eYFP (from UniProt P17252 1-672) (enzyme)
